Test results published in PubChem BioAssay AID624405 (Broad Institute, 2012).
Out of some 1,900 compounds screened, about 250 (13%) were called active. Not shown: some 4% with an inconclusive outcome.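 How the source made its calls: active means fitted curve reaches 40% rescue activity at or below the top valid dose, in every test run; inconclusive means test runs disagree, some active and some inactive; inactive means every run misses the threshold or moves the wrong way.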 Only a part is listed here, and it is no random draw. Results with a measured potency or affinity are listed apart.

Experiment: suppressors of statin myotoxicity in myotubes, dose response, cell-based, C2C12 myotubes, ATP luminescence, cherry pick (AID 624405);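 further: myotubes are challenged with simvastatin at 10 µM to lower ATP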
Conditions: C2C12 myotubes + simvastatin, 48 h, scaled: DMSO wells 0, geranylgeraniol wells 100; at 19.5 µM (top of the series) unless noted

SMILES | rescue activity (ATP increase)
CCCCCCCCC(NC(=O)c1ccc(C#N)cc1)C(=O)NCCC (stereo not drawn) | inactive: 2.25%
C#CCSc1nc(=O)c2cccnc2n1-c1ccc(C)cc1 | inactive: 27%
COc1cccc(NC(=O)Cn2c(=O)n(C)c(=O)c3sc4c(c32)COC(C)(C)C4)c1 | inactive: 21.8%
Cc1ccc(CC(=S)N2CCOCC2)cc1 | inactive: 22%
COc1ccc(CCNS(=O)(=O)c2cccs2)cc1 | inactive: 18.6%
CC(C(=O)O)n1c(C(F)(F)F)nc2ccccc21 (stereo not drawn) | inactive: 11.4%
CCOC(=O)c1oc2cccc(OC(C)=O)c2c1C | inactive: -16.7%
C[C@@H]1CN([C@@H](C)CO)C(=O)Cc2cc(NC(=O)Cc3cn(C)c4ccccc34)ccc2O[C@@H]1CN(C)S(=O)(=O)c1ccc(Cl)cc1 | inactive: 26.2%
CCOC(=O)C1C(c2cc(OC)c(OC)c(OC)c2)NC(=S)NC1(O)C(F)(F)F (stereo not drawn) | inactive: 34.4%
C[C@H](CO)N1C[C@H](C)[C@H](CN(C)Cc2ccc(C(F)(F)F)cc2)Oc2ccc(NC(=O)CCCCCC(=O)Nc3ccccc3N)cc2CC1=O | inactive: 4.41%
Cc1ccccc1N(CC(=O)NC1CCCC1)C(=O)CS(=O)CC(=O)Nc1ccc2c(c1)OCO2 (stereo not drawn) | inactive: 15.3%
Cc1ccc(N(CN2CCCC2=O)C(=O)c2ccc(C)c(C)c2)cc1 | inactive: 29.9%
C[C@@H]1CN([C@H](C)CO)C(=O)c2cc(NC(=O)c3ccncc3)ccc2O[C@@H](C)CCCCO[C@@H]1CN(C)Cc1ccc(C(F)(F)F)cc1 | inactive: 11.1%
C[C@@H]1CCCCO[C@H](CN(C)S(C)(=O)=O)[C@@H](C)CN([C@@H](C)CO)C(=O)c2cc(NS(=O)(=O)c3ccc(F)cc3)ccc2O1 | inactive: 19.6%
CCC1=C(c2ccc(C)cc2)S(=O)(=O)N=C1N1CCC(C(=O)NCCCN2CCCCC2C)CC1 (stereo not drawn) | inactive: -20.1%
COc1cc(Br)c(-c2sc(Nc3ccccc3)n[n+]2-c2ccc(F)cc2)cc1OC | inactive: 51.9%
COc1ccc2oc(=O)cc(CN3CCN(Cc4ccc(OC)c(OC)c4OC)CC3)c2c1 | inactive: -43.4%
Cc1cccc(Cn2c(N3CCCCC3C)nc3c2c(=O)[nH]c(=O)n3C)c1 (stereo not drawn) | inactive: 39.2%
CC(C)COc1cc(=O)[nH]c(SCC(C)C)n1 | inactive: -27.6%
C[C@@H]1CCCCO[C@@H](CN(C)C(=O)Nc2cccc3ccccc23)[C@H](C)CN([C@H](C)CO)C(=O)c2cc(NS(=O)(=O)c3cccs3)ccc2O1 | inactive: 3.19%
CC(=O)N1CCN(c2nnnn2-c2ccccc2)CC1 | inactive: -24.2%
COc1ccc(NC(=O)Nc2cccc3c2O[C@@H](CN(C)C(=O)Nc2cccc4ccccc24)[C@H](C)CN([C@@H](C)CO)C3=O)cc1 | inactive: -5.31%
S=C1N(c2ccccc2)C(c2ccccc2)N2CCCN12 (stereo not drawn) | inactive: 27.2%
C[C@H](CO)N1C[C@H](C)[C@@H](CN(C)Cc2ccccc2F)Oc2ncc(C3=CCCCC3)cc2C1=O | inactive: -21.6%
CCOc1ccc(-c2nc3n(c(=O)c2C#N)CCCS3)cc1 | inactive: -11.7%

3 compounds already listed, ordered by heavy-atom count, low to high.
SMILES | rescue activity (ATP increase)
CC(C(=O)O)n1c(C(F)(F)F)nc2ccccc21 (stereo not drawn) | inactive: 11.4%
C#CCSc1nc(=O)c2cccnc2n1-c1ccc(C)cc1 | inactive: 27%
CCC1=C(c2ccc(C)cc2)S(=O)(=O)N=C1N1CCC(C(=O)NCCCN2CCCCC2C)CC1 (stereo not drawn) | inactive: -20.1%

(next part)

SMILES | rescue activity (ATP increase)
CSCc1c(C(=O)NC2CCCc3ccccc32)oc2ccccc12 (stereo not drawn) | inactive: 28.5%
COc1ccc(CC(=O)Nc2cc(C)on2)cc1OC | inactive: 13.4%
CCN(C(=O)c1nn(-c2ccc(OC)cc2)c(=O)c2c1c1ccccc1n2C)c1ccc(OC)cc1 | inactive: -12.7%
CN1C[C@H]2[C@@H](c3ccccc31)[C@H](CO)N2Cc1ccccc1Cl | inactive: -13.7%
Cc1noc(C)c1S(=O)(=O)Nc1ccc2c(c1)CC(=O)N([C@H](C)CO)C[C@H](C)[C@@H](CN(C)Cc1ccc(Cl)c(Cl)c1)O2 | inactive: 31.6%
Cc1onc(-c2ccncc2)c1C(=O)O | inactive: -7.13%
C[C@@H]1CN([C@H](C)CO)C(=O)c2cc(NC(=O)Cc3cn(C)c4ccccc34)ccc2O[C@H]1CN(C)S(=O)(=O)c1cccs1 | inactive: 14.4%
COc1cccc(NC(=O)N(C)C[C@@H]2Oc3ncc(C#Cc4ccc(F)cc4)cc3C(=O)N([C@@H](C)CO)C[C@H]2C)c1 | inactive: 36.3%
C[C@H](CO)N1C[C@H](C)[C@@H](CN(C)C(=O)NC2CCCCC2)OCCCC[C@H](C)Oc2ccc(NC(=O)Nc3cccc4ccccc34)cc2C1=O | inactive: -1.07%
CCOC(=O)c1ccc2c(c1)nc(COc1ccc(OC)cc1)n2CC | inactive: -4.99%
COc1ccc(S(=O)(=O)Nc2ccc3c(c2)CC(=O)N([C@H](C)CO)C[C@@H](C)[C@H](CN(C)Cc2ccccc2)O3)cc1 | inactive: 25.7% [at 21 µM]
C/C(=C\C(=O)C(F)(F)F)Nc1cc(C)cc(C)c1 | inactive: 1.8%
COc1ccc(-c2noc(-c3ccccc3C(=O)Nc3cccnc3)n2)cc1 | inactive: 4.91%
O=C(Nc1ccccc1)NC1(C(=O)NCCCN2CCOCC2)CCCCC1 | inactive: -2.64%
C[C@@H]1CN([C@@H](C)CO)C(=O)Cc2cc(NC(=O)CCCCCC(=O)Nc3ccccc3N)ccc2O[C@H]1CN(C)Cc1ccc(C(F)(F)F)cc1 | inactive: 16%
CC(C)NC(=O)N(C)C[C@H]1Oc2ccc(N(C)C)cc2C(=O)N([C@@H](C)CO)C[C@H]1C | inactive: 25%
CCOC(=O)c1nn(C23CC4CC(CC(C4)C2)C3)c2c1C(=O)N(c1ccc(C)cc1)C2=O | inactive: -3.76%
O=C(O)Cc1c(O)ccc2ccccc12 | inactive: 11.7%
C[C@H](CO)N1C[C@H](C)[C@H](CN(C)C(=O)Nc2cccc3ccccc23)Oc2ccc(NC(=O)Cn3cnnn3)cc2C1=O | inactive: -0.568%
O=S(=O)(c1ccccc1)N(CC(O)CN1CCCCC1)c1ccccc1 (stereo not drawn) | inactive: -31.4%
C[C@H](CO)N1C[C@H](C)[C@@H](CN(C)CC2CCCCC2)OCCCC[C@H](C)Oc2ccc(NC(=O)Nc3ccc4c(c3)OCO4)cc2C1=O | inactive: -46.2%
O=S1(=O)C=C(N2CCCCC2)c2ccccc21 | inactive: 13.8%
C[C@@H]1CCCCO[C@@H](CN(C)Cc2ccc(C(F)(F)F)cc2)[C@@H](C)CN([C@@H](C)CO)C(=O)c2cc(NC(=O)CCC(F)(F)F)ccc2O1 | inactive: 0.239%
COc1ccc(S(=O)(=O)Nc2ccc3c(c2)CC(=O)N([C@@H](C)CO)C[C@@H](C)[C@H](CN(C)Cc2ccc(C(F)(F)F)cc2)O3)cc1 | inactive: 14.4%
CC1CCN(C(c2ccccc2)c2nnnn2C(C)(C)C)CC1 (stereo not drawn) | inactive: 29.9%

SMILES | rescue activity (ATP increase)
N#Cc1ccc(Oc2ccc(/C=N/O)cn2)cc1 | inactive: 32.7%
Cc1ccc(NC(=O)c2ccccc2N(C)S(C)(=O)=O)cc1C | inactive: 3.5%
COc1ccc(C2CC(=O)Oc3c(C(CCN4CCCCC4)c4ccc(N(C)C)cc4)c(OC)cc(OC)c32)cc1 (stereo not drawn) | inactive: -41.5%
COCCNCC(=O)NC12CC3CC(CC(C3)C1)C2 | inactive: 8.91%
OC[C@@H]1[C@H]2c3ccccc3NC[C@H]2N1Cc1ccccc1Cl | inactive: 13.3%
C[C@@H]1CCCCO[C@@H](CN(C)S(=O)(=O)c2ccc(F)cc2)[C@@H](C)CN([C@H](C)CO)C(=O)c2cc(NC(=O)Nc3cccc4ccccc34)ccc2O1 | inactive: -3.78% [at 21 µM]
O=C1N(Cc2ccccc2F)c2ccccc2C12OCCCO2 | inactive: 16.2%
C[C@@H]1CCCCO[C@H](CN(C)S(=O)(=O)c2cccs2)[C@H](C)CN([C@@H](C)CO)C(=O)c2cc(NC(=O)Nc3ccc(F)cc3)ccc2O1 | inactive: 27.4%
S=C(NCc1ccco1)N1CCN(C(c2ccccc2)c2ccccc2)CC1 | inactive: 36.2%
COCCNC(=O)CN(C(=O)CCC(=O)Nc1nccs1)c1ccccc1OC | inactive: 11.4%
O=C(CC12CC3CC(CC(C3)C1)C2)N1CCOCC1 | inactive: 35.2%
O=C(COc1ccc2ccccc2c1)NNC(=O)Cc1cccc2ccccc12 | inactive: -28.5%
COc1ccc(NC(=O)Nc2ccc3c(c2)C(=O)N([C@H](C)CO)C[C@H](C)[C@H](CN(C)C(=O)C2CCCCC2)OCCCC[C@H](C)O3)cc1 | inactive: 8.91%
COc1ccc(S(=O)(=O)Nc2ccc3c(c2)CC(=O)N([C@@H](C)CO)C[C@H](C)[C@@H](CN(C)Cc2ccc(C(F)(F)F)cc2)O3)cc1 | inactive: 15.7%
O=C(CCCCC(=O)NN=Cc1ccccc1O)NN=Cc1ccccc1O | inactive: -17.5%
COc1ccccc1NC(=O)N1CCN(c2cccc(C(F)(F)F)c2)CC1 | inactive: 14.2%
Cc1ccc(NC(=O)COc2ccc(S(=O)(=O)N3CCOCC3)cc2)cc1 | inactive: 7.96%
OC(CSc1c(Cl)cccc1Cl)CN1CCN(c2ccccc2F)CC1 (stereo not drawn) | inactive: 41.3%
C[C@@H]1CN([C@@H](C)CO)C(=O)c2cc(NC(=O)CCCCCC(=O)Nc3ccccc3N)ccc2O[C@@H]1CN(C)C(=O)Nc1ccc(C(F)(F)F)cc1 | inactive: 12.9%
O=C(CCCCCN1C(=O)c2ccccc2C1=O)Nc1ccc2c(c1)OCCO2 | inactive: 34.8%
C[C@@H]1CN([C@@H](C)CO)C(=O)c2cc(NS(=O)(=O)c3ccc(Cl)cc3)ccc2O[C@@H](C)CCCCO[C@H]1CN(C)C(=O)Nc1cccc2ccccc12 | inactive: 13.2%
CCOc1ccc(C2SCC(=O)N2c2c(C)n(C)n(-c3ccccc3)c2=O)cc1 (stereo not drawn) | inactive: 41.8%
C[C@@H]1CCCCO[C@H](CN(C)S(=O)(=O)c2cccs2)[C@H](C)CN([C@H](C)CO)C(=O)c2cc(NC(=O)Nc3ccc(F)cc3)ccc2O1 | inactive: 19.6%
